In the supplement of paper PMC4635364:
Counter-ions that a name gives are not always drawn. Some of the results follow. This data set is noisy: repeats of one test often differ as much as different tests do.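 ReNCell VM, a human fetal ventral-midbrain neural progenitor line, was differentiated without mitogens. Blinded raters scored images stained for doublecortin (early neurons) or tyrosine hydroxylase (dopaminergic neurons) against untreated wells (0 = no change). Scores were averaged across repeats and both raters, and compounds averaging 2 or more were selected as hits for retesting.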

tested on: ReNCell VM; assay: neuronal differentiation score (DCX+ cell fraction vs untreated, manual image score) (score (-3 to 3)); higher = more neuronal differentiation; settings: library: Phytochemical; 2 uM; 2 weeks

Neuronal differentiation score, inactive:
COC(=O)C1=CO[C@@H](C)[C@H]2CN3CCc4c([nH]c5ccccc45)[C@@H]3C[C@H]12 [Ajmalicine hydrochloride] 0
CC1(C)O[C@@H]2C[C@H]3[C@@H]4CCC5=CC(=O)C=C[C@]5(C)[C@@]4(F)[C@@H](O)C[C@]3(C)[C@]2(C(=O)CO)O1 [Triamcinolone acetonide] 0
C[C@@H]1C(=O)O[C@H]2C[C@@]34[C@H]5C[C@@H](C(C)(C)C)[C@]36[C@@H](OC(=O)[C@@H]6O)O[C@@]4(C(=O)O5)[C@]21O [Ginkgolide A] 0
N[C@@H](Cc1c[nH]c2ccccc12)C(=O)O [L-tryptophane] 0
C=C(C)[C@@H]1CC[C@]2(C(=O)O)CC[C@]3(C)[C@H](CC[C@@H]4[C@@]5(C)CC[C@H](O)C(C)(C)[C@@H]5CC[C@]43C)[C@@H]12 [Betulinic acid] 0
